Assay results: the supplement of paper PMC3334620
In all, about 33,000 sequences were measured (“E-score (-0.5 to 0.5)”: median about -0.0014, highest 2% from about 0.25 on). This is one part of the list.

Target: T1, Cad1 (UniProt P24813)
T1 sequence: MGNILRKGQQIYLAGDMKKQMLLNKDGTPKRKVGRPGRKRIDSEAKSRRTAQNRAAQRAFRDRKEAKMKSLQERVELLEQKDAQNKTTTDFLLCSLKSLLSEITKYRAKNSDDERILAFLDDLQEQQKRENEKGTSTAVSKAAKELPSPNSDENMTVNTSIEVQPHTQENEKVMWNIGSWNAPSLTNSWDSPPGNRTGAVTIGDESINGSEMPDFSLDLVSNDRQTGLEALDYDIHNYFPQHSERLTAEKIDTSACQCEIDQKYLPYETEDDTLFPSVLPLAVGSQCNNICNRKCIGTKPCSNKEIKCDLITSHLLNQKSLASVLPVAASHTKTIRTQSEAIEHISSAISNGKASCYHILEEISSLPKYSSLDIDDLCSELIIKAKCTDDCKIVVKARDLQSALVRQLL
Assay: PBM E-score (8-mer binding enrichment) (E-score (-0.5 to 0.5)); higher = stronger / more preferred TF binding
Conditions: protein concentration: 100 nM; construct: GST-full length
Protocol: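 Universal 'all 10-mer' protein binding microarrays (Agilent AMADID 015681) probed with GST-tagged S. cerevisiae TFs (full-length or DBD) made by in vitro transcription/translation (PURExpress), about 100-200 nM. Bound TF was detected with fluorescent anti-GST. Each ungapped 8-mer (which stands for itself and its reverse complement) is scored by the PBM enrichment score (E-score), a modified Wilcoxon-Mann-Whitney statistic from -0.5 to +0.5, computed with the Universal PBM Analysis Suite. Scale: above 0.35 generally sequence-specific binding.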

Sequence	PBM E-score
AGTTCACA	0.0372
CGCCAGGC	-0.0333
CTTTTCCA	-0.284
AGTACTCG	0.092
ACTCCGCT	-0.102
CGTGCCTA	-0.00024
CTCAGGCC	-0.301
ATCCCCCC	-0.44
ACCGCAAC	0.196
CGTATATC	0.00891
AGATGAGC	0.0232
TATGTAGA	-0.0427
CACGAGGA	0.0402
CCGAGCTA	-0.0872
CATGCAAG	-0.205
GGAACGGA	-0.00579
AAAAGTGA	-0.133
ATATTTAC	0.228
GAGTCATA	-0.0502
ATGGTGGC	-0.284
CTACAGAG	-0.215
GGAATATA	0.105
GCACGCAA	-0.146
CGCCTAGC	-0.225

Nothing new here: an excerpt of the list.
Sequence	PBM E-score
ATATTTAC	0.228
GAGTCATA	-0.0502
ATGGTGGC	-0.284
CTACAGAG	-0.215
GGAATATA	0.105
GCACGCAA	-0.146

(next part)

Sequence	PBM E-score
CGCCTACA	-0.0714
AGTAACAA	0.082
ATACTAAA	0.231
CGAATCTC	0.0764
AGCCAAAC	0.0147
ATCGTGAG	-0.0704
CGCGTCAA	0.0721
GGCTTTAA	-0.12
CTGCGTCC	-0.0351
CAATCGGG	-0.0983
GAGATCTC	-0.0139
GGCATTAC	0.152
TAGAGACA	-0.0387
AGCAAATG	-0.0687
ATCCTGTA	0.0786
AGCTAAAG	-0.0415
GGCTGCGA	0.0509
CAGTCCGC	0.0506
CACCGTGG	-0.018
AAACCTTA	0.111
AAACTATA	0.0672
ACTACGTG	-0.201
CATCAAAG	-0.121
ATGCGAGA	0.0542

Sequence	PBM E-score
ACGACGCC	-0.325
CAAATACC	0.0302
CCGCTGCC	-0.124
GGTAGTTA	-0.145
ACGCTGGG	-0.303
CGGCGGGC	0.0186
GTGATTCA	-0.0138
CGATGGAG	-0.0257
CAGATCAC	-0.129
CGTACGAC	-0.17
GGAGTCGA	-0.141
CGTAATTA	0.249
ATGGACGG	0.0931
AGGCAAGG	-0.224
CGGCAGGC	-0.0773
ACATATAC	0.0911
ACTGGGAT	-0.0364
AGGGATAG	-0.164
AGATCGGC	0.0265
CTAGTTCA	-0.00071
ATTTAGAC	0.0309
GCGCGTAA	0.293
AGTCACAC	-0.0012
TACTGATA	0.209

Sequence	PBM E-score
AGATGTAG	-0.151
CTTTTTGC	0.145
GCAGCGTA	-0.18
AAAGGCCT	-0.043
AAAGAACC	0.0643
CTGACCGA	-0.03
GCTCTCCA	-0.241
AACTTTCA	0.0704
AGAAAGAA	0.0147
GCTGCTGA	0.178
AGGTGCGA	-0.0943
AACCCCCG	-0.392
AACCCCAG	-0.243
AACTGCGA	-0.0339
ATTTTTCC	0.0266
CTGGAAGA	0.0677
CCAACGCC	-0.0448
ATTGCAAC	-0.0158
AAACCGGG	-0.0627
TAGATAGA	0.0637
TCATTCGA	0.144
CAAGCTGG	-0.192
